In patent publication US20120128788A1, “COLLAGEN PRODUCTION ENHANCER” (SOFSERA CORPORATION, priority 2009, published 2012):

Tested on: Fibroblasts of a normal human
Test: Test for determining activity of fibroblast to enhance type I collagen production (ELISA of culture medium)
Type: cell-based
Conditions: positive control, 25 μM, 24 h, n=6
Protocol: Fibroblasts of a normal human were cultured for 24 hours in 0.5% FBS-DMEM culture medium containing the test sample, and the amount of collagen in the culture medium was quantified by ELISA. The test was carried out by repeating six times for each condition (n=6). As a positive control (P.C.), magnesium ascorbyl phosphate (VCPMg) was used. The test samples employed were the calcined hydroxyapatite that is produced in the Production Example 1 and the non-calcined hydroxyapatite that is used in the Production Example 2.

SMILES: O=C1O[C@H]([C@@H](O)CO)C([O-])=C1OP(=O)([O-])[O-].O=C1O[C@H]([C@@H](O)CO)C([O-])=C1OP(=O)([O-])[O-].[Mg+2].[Mg+2].[Mg+2] [VC-PMg, magnesium ascorbyl phosphate]
- Protein Mean ± SD: 6.99 ± 0.56 μg/well and 6.36 ± 0.21 μg/well

Several values for one entry are separate records, joined by “and”; a condition that tells them apart may be missing. Identical values can stand only once.
